log2 fold change data for eleven targets are collected here from the supplement of paper PMC12819154, “High-throughput peptide-centric local stability assay extends protein–ligand identification to membrane proteins, tissues and bacteria” (Nature Structural & Molecular Biology, 2025).

Amino acid sequences for entries named in this document (tags omitted). A change or cut given only in a name is not applied to a line headed by its entry.
UniProt Q5RKV6, whole entry: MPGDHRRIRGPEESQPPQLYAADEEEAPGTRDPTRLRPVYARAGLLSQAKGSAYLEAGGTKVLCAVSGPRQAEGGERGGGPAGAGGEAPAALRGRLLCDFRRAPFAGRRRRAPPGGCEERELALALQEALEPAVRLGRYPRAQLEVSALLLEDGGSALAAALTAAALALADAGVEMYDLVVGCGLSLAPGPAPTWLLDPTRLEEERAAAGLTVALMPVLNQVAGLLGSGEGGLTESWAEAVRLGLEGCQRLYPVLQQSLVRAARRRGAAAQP
UniProt Q5T3F8: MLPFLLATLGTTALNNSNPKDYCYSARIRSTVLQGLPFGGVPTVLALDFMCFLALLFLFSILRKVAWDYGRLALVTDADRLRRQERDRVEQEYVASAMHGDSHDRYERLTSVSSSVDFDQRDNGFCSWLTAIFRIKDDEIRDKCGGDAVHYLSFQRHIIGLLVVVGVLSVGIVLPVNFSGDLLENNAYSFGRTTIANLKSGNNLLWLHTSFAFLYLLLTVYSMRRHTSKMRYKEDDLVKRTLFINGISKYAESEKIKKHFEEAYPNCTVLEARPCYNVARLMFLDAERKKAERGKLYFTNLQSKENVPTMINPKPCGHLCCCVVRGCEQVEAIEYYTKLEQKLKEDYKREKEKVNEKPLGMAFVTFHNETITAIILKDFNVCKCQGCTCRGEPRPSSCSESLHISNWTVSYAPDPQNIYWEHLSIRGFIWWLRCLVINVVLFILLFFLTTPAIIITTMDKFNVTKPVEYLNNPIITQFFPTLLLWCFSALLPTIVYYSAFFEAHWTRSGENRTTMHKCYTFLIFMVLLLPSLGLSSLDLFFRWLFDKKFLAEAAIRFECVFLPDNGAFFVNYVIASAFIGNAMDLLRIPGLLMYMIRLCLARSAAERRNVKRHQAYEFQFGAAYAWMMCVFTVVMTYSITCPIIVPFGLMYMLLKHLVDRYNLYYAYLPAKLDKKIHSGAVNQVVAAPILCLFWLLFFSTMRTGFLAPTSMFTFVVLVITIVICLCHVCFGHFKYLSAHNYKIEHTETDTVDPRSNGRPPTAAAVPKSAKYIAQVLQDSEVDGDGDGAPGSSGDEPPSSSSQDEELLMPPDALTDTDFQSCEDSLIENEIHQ
UniProt Q58FF6, whole entry: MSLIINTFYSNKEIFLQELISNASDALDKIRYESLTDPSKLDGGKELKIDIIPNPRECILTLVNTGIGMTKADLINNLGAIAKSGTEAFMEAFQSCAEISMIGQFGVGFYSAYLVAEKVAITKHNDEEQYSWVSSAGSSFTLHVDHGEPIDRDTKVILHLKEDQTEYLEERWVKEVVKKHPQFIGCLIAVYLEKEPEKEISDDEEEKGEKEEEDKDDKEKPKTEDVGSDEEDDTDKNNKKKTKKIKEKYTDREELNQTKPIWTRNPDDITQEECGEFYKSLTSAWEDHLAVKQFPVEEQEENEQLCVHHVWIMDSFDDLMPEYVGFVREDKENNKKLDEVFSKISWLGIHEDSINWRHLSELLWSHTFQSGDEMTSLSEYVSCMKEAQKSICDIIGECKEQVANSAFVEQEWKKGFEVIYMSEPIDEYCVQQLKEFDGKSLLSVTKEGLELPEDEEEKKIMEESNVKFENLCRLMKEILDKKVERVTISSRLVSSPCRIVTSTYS
UniProt Q5BKX5: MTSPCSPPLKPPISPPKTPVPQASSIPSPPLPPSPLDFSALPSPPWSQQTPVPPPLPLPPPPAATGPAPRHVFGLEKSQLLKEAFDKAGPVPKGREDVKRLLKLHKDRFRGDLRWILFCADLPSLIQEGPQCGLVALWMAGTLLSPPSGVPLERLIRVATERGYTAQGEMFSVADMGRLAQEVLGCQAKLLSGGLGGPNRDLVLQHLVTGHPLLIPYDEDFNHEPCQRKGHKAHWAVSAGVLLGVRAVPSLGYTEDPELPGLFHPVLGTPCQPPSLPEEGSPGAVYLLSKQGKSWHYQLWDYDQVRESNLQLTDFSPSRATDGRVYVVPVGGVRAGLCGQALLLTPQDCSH
UniProt Q5T7V8: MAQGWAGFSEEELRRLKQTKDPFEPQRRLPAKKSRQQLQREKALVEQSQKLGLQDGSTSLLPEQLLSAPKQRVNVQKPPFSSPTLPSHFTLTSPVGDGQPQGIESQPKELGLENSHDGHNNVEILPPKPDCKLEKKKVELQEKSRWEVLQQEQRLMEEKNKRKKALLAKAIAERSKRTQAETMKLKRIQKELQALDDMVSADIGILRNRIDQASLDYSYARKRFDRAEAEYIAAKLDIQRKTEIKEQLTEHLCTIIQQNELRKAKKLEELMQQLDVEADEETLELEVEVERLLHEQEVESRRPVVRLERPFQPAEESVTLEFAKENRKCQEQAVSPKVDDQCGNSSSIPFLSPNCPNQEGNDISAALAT
UniProt Q5UAW9: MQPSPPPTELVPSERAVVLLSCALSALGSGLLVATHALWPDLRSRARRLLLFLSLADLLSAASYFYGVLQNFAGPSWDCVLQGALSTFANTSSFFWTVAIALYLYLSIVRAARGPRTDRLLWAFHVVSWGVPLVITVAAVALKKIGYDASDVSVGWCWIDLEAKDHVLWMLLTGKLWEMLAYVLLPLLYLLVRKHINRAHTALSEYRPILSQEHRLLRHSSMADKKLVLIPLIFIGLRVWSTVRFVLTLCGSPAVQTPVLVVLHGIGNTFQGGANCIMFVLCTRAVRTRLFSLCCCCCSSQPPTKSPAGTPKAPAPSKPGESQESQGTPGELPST
UniProt Q5T6V5: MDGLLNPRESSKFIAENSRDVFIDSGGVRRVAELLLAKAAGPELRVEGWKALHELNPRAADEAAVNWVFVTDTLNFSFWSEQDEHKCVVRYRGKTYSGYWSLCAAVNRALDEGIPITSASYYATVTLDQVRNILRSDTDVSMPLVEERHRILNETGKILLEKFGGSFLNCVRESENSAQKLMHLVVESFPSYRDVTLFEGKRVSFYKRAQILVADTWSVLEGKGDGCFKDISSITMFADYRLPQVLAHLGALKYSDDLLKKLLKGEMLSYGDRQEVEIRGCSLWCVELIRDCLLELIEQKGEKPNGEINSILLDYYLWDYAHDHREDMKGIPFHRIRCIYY
UniProt Q5SSJ5: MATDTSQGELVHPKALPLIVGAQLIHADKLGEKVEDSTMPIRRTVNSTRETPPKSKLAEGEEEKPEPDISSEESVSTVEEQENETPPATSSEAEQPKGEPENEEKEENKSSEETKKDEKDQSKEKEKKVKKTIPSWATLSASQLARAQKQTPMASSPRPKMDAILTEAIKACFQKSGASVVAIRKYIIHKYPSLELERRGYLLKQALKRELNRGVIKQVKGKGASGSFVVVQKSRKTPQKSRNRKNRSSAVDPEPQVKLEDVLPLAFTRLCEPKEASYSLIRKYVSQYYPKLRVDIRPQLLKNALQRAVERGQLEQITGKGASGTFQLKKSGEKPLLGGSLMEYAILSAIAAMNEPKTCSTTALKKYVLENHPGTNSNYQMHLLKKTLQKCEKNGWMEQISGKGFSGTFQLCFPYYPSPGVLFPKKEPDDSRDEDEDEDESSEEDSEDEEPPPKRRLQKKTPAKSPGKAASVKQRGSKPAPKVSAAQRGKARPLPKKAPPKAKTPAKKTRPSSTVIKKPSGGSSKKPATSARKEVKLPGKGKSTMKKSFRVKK
UniProt Q5T1B0: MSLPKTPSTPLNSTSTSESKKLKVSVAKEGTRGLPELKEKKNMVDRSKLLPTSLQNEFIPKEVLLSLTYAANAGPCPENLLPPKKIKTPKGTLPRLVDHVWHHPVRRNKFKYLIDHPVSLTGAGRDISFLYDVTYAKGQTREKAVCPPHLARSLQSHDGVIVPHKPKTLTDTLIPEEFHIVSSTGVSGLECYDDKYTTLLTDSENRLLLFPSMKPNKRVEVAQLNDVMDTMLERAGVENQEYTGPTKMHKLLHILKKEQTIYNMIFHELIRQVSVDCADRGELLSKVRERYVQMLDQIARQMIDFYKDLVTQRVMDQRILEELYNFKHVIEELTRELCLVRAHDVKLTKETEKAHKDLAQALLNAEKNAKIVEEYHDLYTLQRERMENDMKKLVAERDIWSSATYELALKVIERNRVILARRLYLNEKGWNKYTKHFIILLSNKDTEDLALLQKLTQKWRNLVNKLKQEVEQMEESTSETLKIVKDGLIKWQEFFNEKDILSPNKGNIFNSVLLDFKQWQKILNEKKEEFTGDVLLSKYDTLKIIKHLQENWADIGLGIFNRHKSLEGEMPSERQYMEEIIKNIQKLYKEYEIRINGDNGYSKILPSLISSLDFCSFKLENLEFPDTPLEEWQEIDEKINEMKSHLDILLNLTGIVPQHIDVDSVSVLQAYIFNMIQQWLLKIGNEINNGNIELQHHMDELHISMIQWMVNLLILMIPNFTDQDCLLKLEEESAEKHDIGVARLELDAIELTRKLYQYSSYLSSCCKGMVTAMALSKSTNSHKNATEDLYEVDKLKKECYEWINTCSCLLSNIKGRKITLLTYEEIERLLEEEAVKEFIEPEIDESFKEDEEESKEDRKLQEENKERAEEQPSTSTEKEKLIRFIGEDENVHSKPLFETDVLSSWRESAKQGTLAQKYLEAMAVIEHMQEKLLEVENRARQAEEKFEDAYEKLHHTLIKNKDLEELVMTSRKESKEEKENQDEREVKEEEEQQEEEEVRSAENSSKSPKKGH
UniProt Q53FZ2: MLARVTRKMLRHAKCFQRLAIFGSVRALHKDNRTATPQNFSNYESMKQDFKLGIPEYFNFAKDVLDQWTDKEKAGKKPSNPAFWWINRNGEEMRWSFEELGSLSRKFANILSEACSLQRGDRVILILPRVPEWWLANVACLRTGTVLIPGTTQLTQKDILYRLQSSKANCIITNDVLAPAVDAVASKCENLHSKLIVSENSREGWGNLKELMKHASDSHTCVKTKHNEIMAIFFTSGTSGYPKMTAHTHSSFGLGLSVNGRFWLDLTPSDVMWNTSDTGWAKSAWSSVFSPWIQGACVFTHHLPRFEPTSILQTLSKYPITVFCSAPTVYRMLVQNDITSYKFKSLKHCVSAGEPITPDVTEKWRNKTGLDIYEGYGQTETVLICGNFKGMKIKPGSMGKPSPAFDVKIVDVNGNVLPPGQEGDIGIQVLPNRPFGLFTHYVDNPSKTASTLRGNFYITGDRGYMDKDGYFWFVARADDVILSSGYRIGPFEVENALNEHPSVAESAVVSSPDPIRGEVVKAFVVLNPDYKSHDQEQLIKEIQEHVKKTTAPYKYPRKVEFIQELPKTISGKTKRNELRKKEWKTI

This is one part of the list. Most values lie at the level of the controls, where differences are scatter.

Compound in the assay: Cc1nc(Nc2ncc(C(=O)Nc3c(C)cccc3Cl)s2)cc(N2CCN(CCO)CC2)n1 [dasatinib]
The experiment in a line: log2 fold change of tryptic peptide abundance, ligand vs vehicle (limited proteolysis) (log2 ratio); higher = more trypsin-susceptible (destabilized). The following applies: ligand concentration: 5 uM; sample: K562 cleared lysate.
In the case of “EXOSC6 (peptide sequence: GGGPAGAGGEAPAALR, peptide start residue: 78) (UniProt Q5RKV6)”, the log2 fold change was -0.266.
In the case of “TMEM63B (peptide sequence: SNGRPPTAAAVPK, peptide start residue: 755) (UniProt Q5T3F8)” it was 0.469; in that of “HSP90AB4P (peptide sequence: SLIINTFYSNK, peptide start residue: 2) (UniProt Q58FF6)”, -0.227; in that of “C19orf54 (peptide sequence: LLSGGLGGPNR, peptide start residue: 190) (UniProt Q5BKX5)”, 0.286.
On to “UniProt Q5T7V8 (peptide sequence: ALVEQSQK, peptide start residue: 43)”, for which the log2 fold change was -0.388.
In the case of “UniProt Q5T1R4 (peptide sequence: SNEEYVYVR, peptide start residue: 2073)” it was -0.0268.
“UniProt Q5UAW9 (peptide sequence: SPAGTPK, peptide start residue: 306)”: the log2 fold change was -0.303.
With “C9orf64 (peptide sequence: LMHLVVESFPSYR, peptide start residue: 181) (UniProt Q5T6V5)” the figure was 0.306; with “HP1BP3 (peptide sequence: LGEKVEDSTMPIRR, peptide start residue: 30) (UniProt Q5SSJ5)”, -0.259; with “UniProt Q5T1B0 (peptide sequence: LLEVENR, peptide start residue: 932)”, 0.0325.
In the case of “ACSM3 (peptide sequence: SHDQEQLIK, peptide start residue: 532) (UniProt Q53FZ2)” it was 0.198.
